The list shows a part of the results. Single values are uncertain, as repeats are few or missing.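 The apoptosis fraction was the count of cleaved-PARP antibody-stained nuclei relative to all DNA-stained nuclei, imaged in 1,536-well plates. Screening doses were set so most cells survived, and baseline and induced cleaved-PARP levels vary greatly across cell lines.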

The first assay relates to WM3619. As to the kind of experiment: cleaved PARP positive nuclei fraction relative to DMSO control; melanoma cells; higher = more apoptosis. To be noted: library dose: low library concentration; 72 h.
As for `C[As](C)SC[C@H](NC(=O)CC[C@H](N)C(=O)O)C(=O)NCC(=O)O` [Darinaparsin] + COc1ccc(COc2ccc(Cc3cnc(N)nc3N)cc2OC)cc1 [GW2580] (first compound 0.4 µM, partner dose 1 µM), the “cleaved PARP positive nuclei fraction” value stood at 82.4%.

Regarding `C[C@]12O[C@H](C[C@]1(O)CO)n1c3ccccc3c3c4c(c5c6ccccc6n2c5c31)CNC4=O` [Lestaurtinib] + COc1ccc(-c2ccc3c(N4CCOCC4)nc(N4C[C@@H](C)O[C@@H](C)C4)nc3n2)cc1CO [KU0063794] (first compound 0.004 µM, partner dose 0.02 µM), the “cleaved PARP positive nuclei fraction” value was 110%.

Consider `O=S(=O)(c1ccccc1)N(CC(F)(F)F)c1ccc(C(O)(C(F)(F)F)C(F)(F)F)cc1` + Cc1cc(SCc2sc(-c3ccc(C(F)(F)F)c(F)c3)nc2C)ccc1OCC(=O)O [GW0742] (first compound 1.4 µM, partner dose 2 µM), for which the “cleaved PARP positive nuclei fraction” value was determined as 432%.

Turning to `COc1ccc(COc2ccc(Cc3cnc(N)nc3N)cc2OC)cc1` + Cc1cc(SCc2sc(-c3ccc(C(F)(F)F)c(F)c3)nc2C)ccc1OCC(=O)O [GW0742] (first compound 1 µM, partner dose 2 µM), the “cleaved PARP positive nuclei fraction” value stood at 82.5%.

On to `C[As](C)SC[C@H](NC(=O)CC[C@H](N)C(=O)O)C(=O)NCC(=O)O` [Darinaparsin] + CCc1ccc(CCOc2ccc(CC3SC(=O)NC3=O)cc2)nc1 [pioglitazone] (first compound 0.4 µM, partner dose 2 µM), for which the “cleaved PARP positive nuclei fraction” value was found to be 74.4%.

With `O=C(Oc1ccc([N+](=O)[O-])cc1)N1CCC(C(O)(c2ccc3c(c2)OCO3)c2ccc3c(c2)OCO3)CC1` + CC(C)CCN1c2nc(Nc3cc(F)c(O)c(F)c3)ncc2N(C)C(=O)C1C [BID1870] (first compound 1 µM, partner dose 0.2 µM), the “cleaved PARP positive nuclei fraction” value was 73%.

In the case of `CO[C@H]1C[C@@H]2CC[C@@H](C)[C@@](O)(O2)C(=O)C(=O)N2CCCC[C@H]2C(=O)O[C@H]([C@H](C)C[C@@H]2CC[C@@H](OCCO)[C@H](OC)C2)CC(=O)[C@H](C)/C=C(\C)[C@@H](O)[C@@H](OC)C(=O)[C@H](C)C[C@H](C)/C=C/C=C/C=C/1C` [everolimus] + Cc1cc(SCc2sc(-c3ccc(C(F)(F)F)c(F)c3)nc2C)ccc1OCC(=O)O [GW0742] (first compound 0.02 µM, partner dose 2 µM), the “cleaved PARP positive nuclei fraction” value turned out to be 82.2%.

Take `COc1cc(Nc2ncc(F)c(Nc3ccc4c(n3)NC(=O)C(C)(C)O4)n2)cc(OC)c1OC` [Tamatinib] + O=C(Oc1ccc([N+](=O)[O-])cc1)N1CCC(C(O)(c2ccc3c(c2)OCO3)c2ccc3c(c2)OCO3)CC1 [JZL184] (first compound 0.4 µM, partner dose 1 µM): the “cleaved PARP positive nuclei fraction” value is 86%.

With `COc1cc2ncnc(Nc3ccc(Oc4ccccc4)cc3)c2cc1OC` + O=C(Oc1ccc([N+](=O)[O-])cc1)N1CCC(C(O)(c2ccc3c(c2)OCO3)c2ccc3c(c2)OCO3)CC1 [JZL184] (first compound 2 µM, partner dose 1 µM), the “cleaved PARP positive nuclei fraction” value turned out to be 84.1%.

For the molecule `C/C(O)=C(\C#N)C(=O)Nc1cc(Br)ccc1Br` + O=C(Oc1ccc([N+](=O)[O-])cc1)N1CCC(C(O)(c2ccc3c(c2)OCO3)c2ccc3c(c2)OCO3)CC1 [JZL184] (first compound 2 µM, partner dose 1 µM), the “cleaved PARP positive nuclei fraction” value was found to be 103%.

For `C/C(O)=C(\C#N)C(=O)Nc1cc(Br)ccc1Br` + CC(C)CCN1c2nc(Nc3cc(F)c(O)c(F)c3)ncc2N(C)C(=O)C1C [BID1870] (first compound 2 µM, partner dose 0.2 µM), the “cleaved PARP positive nuclei fraction” value was determined as 175%.

As for `N#Cc1c(O)c2c(-c3ccc(-c4ccccc4O)cc3)csc2[nH]c1=O` + C/C(O)=C(\C#N)C(=O)Nc1cc(Br)ccc1Br [LFM-A13] (first compound 2 µM, partner dose 2 µM), the “cleaved PARP positive nuclei fraction” value stood at 97.9%.

Turning to `C[C@]12O[C@H](C[C@]1(O)CO)n1c3ccccc3c3c4c(c5c6ccccc6n2c5c31)CNC4=O` [Lestaurtinib] + C[C@@H]1CCN(C(=O)CC#N)C[C@@H]1N(C)c1ncnc2[nH]ccc12 [CP690550] (first compound 0.004 µM, partner dose 1 µM), the “cleaved PARP positive nuclei fraction” value was 89.2%.

With `Cc1ccc(NC(=O)c2cccc(N(C)C)c2)cc1NC(=O)c1ccc(O)cc1` + C/C(O)=C(\C#N)C(=O)Nc1cc(Br)ccc1Br [LFM-A13] (first compound 2 µM, partner dose 2 µM), the “cleaved PARP positive nuclei fraction” value was found to be 88.7%.

Another assay deals with WM451Lu. The description is as above. The following applies: library dose: low library concentration; 72 h.
On to `C[C@]12O[C@H](C[C@]1(O)CO)n1c3ccccc3c3c4c(c5c6ccccc6n2c5c31)CNC4=O` [Lestaurtinib] + CCN(CC)CCCCNc1ncc2cc(-c3cc(OC)cc(OC)c3)c(NC(=O)NC(C)(C)C)nc2n1 [PD173074] (first compound 0.004 µM, partner dose 0.1 µM), for which the “cleaved PARP positive nuclei fraction” value was found to be 106%.

Consider `N#Cc1c(O)c2c(-c3ccc(-c4ccccc4O)cc3)csc2[nH]c1=O` + O=C(Oc1ccc([N+](=O)[O-])cc1)N1CCC(C(O)(c2ccc3c(c2)OCO3)c2ccc3c(c2)OCO3)CC1 [JZL184] (first compound 2 µM, partner dose 1 µM), for which the “cleaved PARP positive nuclei fraction” value is 67.4%.

`C[C@]12O[C@H](C[C@]1(O)CO)n1c3ccccc3c3c4c(c5c6ccccc6n2c5c31)CNC4=O` [Lestaurtinib] + O=c1cc(-c2cccc3c2Sc2ccccc2S3)oc(N2CCOCC2)c1 [KU55933] (first compound 0.004 µM, partner dose 1 µM): the “cleaved PARP positive nuclei fraction” value was determined as 38.4%.

Turning to `CCc1ccc(CCOc2ccc(CC3SC(=O)NC3=O)cc2)nc1` (stereo not given) [pioglitazone] + O=C(Oc1ccc([N+](=O)[O-])cc1)N1CCC(C(O)(c2ccc3c(c2)OCO3)c2ccc3c(c2)OCO3)CC1 [JZL184] (first compound 2 µM, partner dose 1 µM), the “cleaved PARP positive nuclei fraction” value is 76.3%.

On to `COc1cc2c(Oc3ccc4[nH]c(C)cc4c3F)ncnc2cc1OCCCN1CCCC1` [cediranib] + Cc1cc(SCc2sc(-c3ccc(C(F)(F)F)c(F)c3)nc2C)ccc1OCC(=O)O [GW0742] (first compound 0.4 µM, partner dose 2 µM), for which the “cleaved PARP positive nuclei fraction” value worked out at 124%.

In the case of `Cc1cc(SCc2sc(-c3ccc(C(F)(F)F)c(F)c3)nc2C)ccc1OCC(=O)O` + O=C(Oc1ccc([N+](=O)[O-])cc1)N1CCC(C(O)(c2ccc3c(c2)OCO3)c2ccc3c(c2)OCO3)CC1 [JZL184] (first compound 2 µM, partner dose 1 µM), the “cleaved PARP positive nuclei fraction” value stood at 88.2%.

Regarding `Cc1cc(SCc2sc(-c3ccc(C(F)(F)F)c(F)c3)nc2C)ccc1OCC(=O)O` + COc1cc(N2CCC(N3CCN(C)CC3)CC2)ccc1Nc1ncc(Cl)c(Nc2ccccc2S(=O)(=O)C(C)C)n1 [NVP-TAE684] (first compound 2 µM, partner dose 0.08 µM), the “cleaved PARP positive nuclei fraction” value amounted to 27.1%.

With `C[C@]12O[C@H](C[C@]1(O)CO)n1c3ccccc3c3c4c(c5c6ccccc6n2c5c31)CNC4=O` [Lestaurtinib] + COC(=O)c1sccc1S(=O)(=O)Nc1ccc(Nc2ccccc2)cc1OC [GSK0660] (first compound 0.004 µM, partner dose 1 µM), the “cleaved PARP positive nuclei fraction” value is 107%.

For `C[C@]12O[C@H](C[C@]1(O)CO)n1c3ccccc3c3c4c(c5c6ccccc6n2c5c31)CNC4=O` [Lestaurtinib] + CC1(C)NC(=O)N(c2ccc([N+](=O)[O-])c(C(F)(F)F)c2)C1=O [nilutamide] (first compound 0.004 µM, partner dose 1 µM), the “cleaved PARP positive nuclei fraction” value came to 55.9%.

In the case of `O=C1NC(=O)/C(=C/c2ccc(-c3ccc(F)cc3O)o2)S1` + O=C(Oc1ccc([N+](=O)[O-])cc1)N1CCC(C(O)(c2ccc3c(c2)OCO3)c2ccc3c(c2)OCO3)CC1 [JZL184] (first compound 1 µM, partner dose 1 µM), the “cleaved PARP positive nuclei fraction” value is 109%.

Take `Oc1cc(-c2nc(-c3ccccc3)[nH]c2-c2ccncc2)ccc1Cl` + O=C(Oc1ccc([N+](=O)[O-])cc1)N1CCC(C(O)(c2ccc3c(c2)OCO3)c2ccc3c(c2)OCO3)CC1 [JZL184] (first compound 0.2 µM, partner dose 1 µM): the “cleaved PARP positive nuclei fraction” value turned out to be 25.1%.

As for `C[C@]12O[C@H](C[C@]1(O)CO)n1c3ccccc3c3c4c(c5c6ccccc6n2c5c31)CNC4=O` [Lestaurtinib] + O=S(=O)(c1ccccc1)N(CC(F)(F)F)c1ccc(C(O)(C(F)(F)F)C(F)(F)F)cc1 [T0901317] (first compound 0.004 µM, partner dose 1.4 µM), the “cleaved PARP positive nuclei fraction” value worked out at 91.3%.

Regarding `NCC(=O)Nc1ccc(-n2nc(C(F)(F)F)cc2-c2ccc3c(ccc4ccccc43)c2)cc1` + O=C(Oc1ccc([N+](=O)[O-])cc1)N1CCC(C(O)(c2ccc3c(c2)OCO3)c2ccc3c(c2)OCO3)CC1 [JZL184] (first compound 1 µM, partner dose 1 µM), the “cleaved PARP positive nuclei fraction” value came out at 196%.

As to `C[C@@H]1CCN(C(=O)CC#N)C[C@@H]1N(C)c1ncnc2[nH]ccc12` + C/C(O)=C(\C#N)C(=O)Nc1cc(Br)ccc1Br [LFM-A13] (first compound 1 µM, partner dose 2 µM), the “cleaved PARP positive nuclei fraction” value turned out to be 71.3%.

Turning to `C[As](C)SC[C@H](NC(=O)CC[C@H](N)C(=O)O)C(=O)NCC(=O)O` [Darinaparsin] + O=C(Nc1ccccc1)c1cc([N+](=O)[O-])ccc1Cl [GW9662] (first compound 0.4 µM, partner dose 2 µM), the “cleaved PARP positive nuclei fraction” value came to 60.8%.

As to `C[C@]12O[C@H](C[C@]1(O)CO)n1c3ccccc3c3c4c(c5c6ccccc6n2c5c31)CNC4=O` [Lestaurtinib] + O=C(O)c1ccc(-c2c[nH]c3ncc(-c4ccccc4)cc23)cc1C1CCCC1 [GSK650394] (first compound 0.004 µM, partner dose 0.16 µM), the “cleaved PARP positive nuclei fraction” value was determined as 302%.

Values taken from the supplement of paper PMC4604168 (melanoma cell lines).
